Earlier results in patent US5700679A, “Lipid vesicles having a bilayer containing a surfactant with anti-viral and spermicidal activity” (priority 1996, dated 1997).
At least one compound was matched to its structure with a doubt left.

System: viruses
Conditions: cited from earlier work

CCCCCCCCCCCCCCCC[n+]1ccccc1 [cetyl pyridinium chloride]
anti-viral properties (in words): some anti-viral properties
